Results from patent publication US9271500B2, “Fused heterocyclic compound” (Sumitomo Chemical Company, Limited, priority 2012, dated 2016).
Some of these results come from one statement about several compounds together. At least one compound was matched to its structure with a doubt left.

Tested on: Aphis gossypii
Assay: Test Example 1: foliar spray on cucumber seedling inoculated with Aphis gossypii
Assay type: in vivo
Settings: 500 ppm active ingredient, 20 ml sprayed on cucumber seedling, six days after spraying

SMILES: CCS(=O)(=O)c1cc(C(F)(F)F)ccc1-c1cn2cc(C(F)(F)F)ccc2n1 [compound 7]
- control value: ≥ 90%
